# Test results reported in the supplement of paper PMC8728848.
# This is one part of the list.
# Assays:
# Assay in all cases: glycan array binding signal (z-score within array); higher = stronger binding
# Conditions in all cases: glycan notation: IUPAC condensed, linker removed
# [1] = biological target: Neu5Ac(a2-6)Gal(b1-4)GlcNAc(b1-3)GalNAc
# In short: (§1)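 Glycan array binding is given as a within-array Z-score, which can be read as non-binding when negative. The arrays, 3228 of them, came from the Consortium for Functional Glycomics database and were retained only where the protein sequence was available. Z-scores were averaged across arrays of the same protein sequence at different concentrations or buffers and across linkers.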
# [2] = biological target: Neu5Ac(a2-6)Gal(b1-4)GlcNAc(b1-3)[Neu5Ac(a2-6)Gal(b1-4)GlcNAc(b1-6)]GalNAc
# In short: as §1
# [3] = biological target: Neu5Ac(a2-6)Gal(b1-4)GlcNAc(b1-6)GalNAc
# In short: as §1
# [4] = biological target: Neu5Ac(a2-6)Gal(b1-4)GlcNAc(b1-6)[Gal(b1-3)GlcNAc(b1-3)]Gal(b1-4)Glc
# In short: as §1
# [5] = biological target: Neu5Ac(a2-6)Gal(b1-4)GlcNAc(b1-6)[Gal(b1-3)]GalNAc
# In short: as §1
# [6] = biological target: Neu5Ac(a2-6)Gal(b1-4)GlcNAc6S
# In short: as §1
# [7] = biological target: Neu5Ac(a2-6)GalNAc
# In short: as §1
# [8] = biological target: Neu5Ac(a2-6)GalNAc(b1-4)GlcNAc
# In short: as §1
# [9] = biological target: Neu5Ac(a2-6)GalNAc(b1-4)GlcNAc6S
# In short: as §1
# [10] = biological target: Neu5Ac(a2-6)GlcNAc(b1-4)GlcNAc
# In short: as §1
# [11] = biological target: Neu5Ac(a2-6)GlcNAc(b1-4)GlcNAc(b1-4)GlcNAc
# In short: as §1
# [12] = biological target: Neu5Ac(a2-8)Neu5Ac
# In short: as §1
# [13] = biological target: Neu5Ac(a2-8)Neu5Ac(a2-3)Gal(b1-3)GalNAc(b1-4)[Neu5Ac(a2-3)]Gal(b1-4)Glc
# In short: as §1
# [14] = biological target: Neu5Ac(a2-8)Neu5Ac(a2-3)Gal(b1-3)GalNAc(b1-4)[Neu5Ac(a2-8)Neu5Ac(a2-3)]Gal(b1-4)Glc
# In short: as §1
# [15] = biological target: Neu5Ac(a2-8)Neu5Ac(a2-3)Gal(b1-4)Glc
# In short: as §1
# [16] = biological target: Neu5Ac(a2-8)Neu5Ac(a2-3)Gal(b1-4)GlcNAc
# In short: as §1
# [17] = biological target: Neu5Ac(a2-8)Neu5Ac(a2-3)[Gal(b1-3)GalNAc(b1-4)]Gal(b1-4)Glc
# In short: as §1
# [18] = biological target: Neu5Ac(a2-8)Neu5Ac(a2-3)[GalNAc(b1-4)]Gal(b1-4)Glc
# In short: as §1
# [19] = biological target: Neu5Ac(a2-8)Neu5Ac(a2-8)Neu5Ac
# In short: as §1
# [20] = biological target: Neu5Ac(a2-8)Neu5Ac(a2-8)Neu5Ac(a2-3)Gal(b1-4)Glc
# In short: as §1
# [21] = biological target: Neu5Ac(a2-8)Neu5Ac(a2-8)Neu5Ac(a2-3)[Gal(b1-3)GalNAc(b1-4)]Gal(b1-4)Glc
# In short: as §1
# [22] = biological target: Neu5Ac(a2-8)Neu5Ac(a2-8)Neu5Ac(a2-3)[GalNAc(b1-4)]Gal(b1-4)Glc
# In short: as §1
# [23] = biological target: Neu5Ac(a2-8)Neu5Ac(a2-8)Neu5Ac(a2-8)Neu5Ac(a2-3)[GalNAc(b1-4)]Gal(b1-4)Glc
# In short: as §1
# [24] = biological target: Neu5Ac(a2-8)Neu5Gc(a2-3)Gal(b1-4)GlcNAc
# In short: as §1
# [25] = biological target: Neu5Ac(b2-6)Gal(b1-4)GlcNAc
# In short: as §1
# [26] = biological target: Neu5Ac(b2-6)GalNAc
# In short: as §1
# [27] = biological target: Neu5Ac9Ac(a2-3)Gal(b1-3)GlcNAc
# In short: as §1
# [28] = biological target: Neu5Ac9Ac(a2-3)Gal(b1-4)GlcNAc
# In short: as §1
# [29] = biological target: Neu5Ac9Ac(a2-6)Gal(b1-4)GlcNAc
# In short: as §1
# [30] = biological target: Neu5Gc(a2-3)Gal(b1-3)GlcNAc
# In short: as §1
# [31] = biological target: Neu5Gc(a2-3)Gal(b1-3)[Fuc(a1-4)]GlcNAc
# In short: as §1
# [32] = biological target: Neu5Gc(a2-3)Gal(b1-4)Glc
# In short: as §1
# [33] = biological target: Neu5Gc(a2-3)Gal(b1-4)GlcNAc
# In short: as §1
# [34] = biological target: Neu5Gc(a2-3)Gal(b1-4)GlcNAc(b1-3)Gal(b1-4)GlcNAc(b1-2)Man(a1-3)[Neu5Gc(a2-3)Gal(b1-4)GlcNAc(b1-3)Gal(b1-4)GlcNAc(b1-2)Man(a1-6)]Man(b1-4)GlcNAc(b1-4)GlcNAc
# In short: as §1
# [35] = biological target: Neu5Gc(a2-3)Gal(b1-4)[Fuc(a1-3)]GlcNAc
# In short: as §1
# [36] = biological target: Neu5Gc(a2-6)Gal(b1-4)GlcNAc
# In short: as §1
# [37] = biological target: Neu5Gc(a2-6)GalNAc
# In short: as §1
# [38] = biological target: Neu5Gc(a2-8)Neu5Ac(a2-3)Gal(b1-4)GlcNAc
# In short: as §1
# [39] = biological target: Neu5Gc(a2-8)Neu5Gc(a2-3)Gal(b1-4)GlcNAc
# In short: as §1
# [40] = biological target: Neu5Gc(a2-8)Neu5Gc(a2-3)Gal(b1-4)GlcNAc(b1-3)Gal(b1-4)GlcNAc
# In short: as §1
# [41] = biological target: Neu5Gc(a2-8)Neu5Gc(a2-6)Gal(b1-4)GlcNAc
# In short: as §1
# [42] = biological target: Neu5Gc(b2-6)Gal(b1-4)GlcNAc
# In short: as §1
binder,measurement,setting,value
KILRGVCKKIMRTFLRRISKDILTGKK [NK2 (Sus scrofa)],glycan array binding signal (z-score),[1],0.812
same,glycan array binding signal (z-score),[2],1.76
same,glycan array binding signal (z-score),[3],1.37
same,glycan array binding signal (z-score),[4],-0.41
same,glycan array binding signal (z-score),[5],-1.1
same,glycan array binding signal (z-score),[6],1.69
same,glycan array binding signal (z-score),[7],-0.814
same,glycan array binding signal (z-score),[8],-0.829
same,glycan array binding signal (z-score),[9],0.339
same,glycan array binding signal (z-score),[10],-0.816
same,glycan array binding signal (z-score),[11],-0.425
same,glycan array binding signal (z-score),[12],0.69
same,glycan array binding signal (z-score),[13],0.902
same,glycan array binding signal (z-score),[14],0.039
same,glycan array binding signal (z-score),[15],-0.889
same,glycan array binding signal (z-score),[16],-0.699
same,glycan array binding signal (z-score),[17],-0.924
same,glycan array binding signal (z-score),[18],-0.196
same,glycan array binding signal (z-score),[19],0.091
same,glycan array binding signal (z-score),[20],0.702
same,glycan array binding signal (z-score),[21],0.446
same,glycan array binding signal (z-score),[22],-0.07
same,glycan array binding signal (z-score),[23],0.244
same,glycan array binding signal (z-score),[24],-1.23
same,glycan array binding signal (z-score),[25],-1.01
same,glycan array binding signal (z-score),[26],-0.062
same,glycan array binding signal (z-score),[27],-0.385
same,glycan array binding signal (z-score),[28],0.261
same,glycan array binding signal (z-score),[29],0.15
same,glycan array binding signal (z-score),[30],-0.108
same,glycan array binding signal (z-score),[31],-0.471
same,glycan array binding signal (z-score),[32],-0.495
same,glycan array binding signal (z-score),[33],0.176
same,glycan array binding signal (z-score),[34],-0.865
same,glycan array binding signal (z-score),[35],-0.776
same,glycan array binding signal (z-score),[36],-0.373
same,glycan array binding signal (z-score),[37],0.251
same,glycan array binding signal (z-score),[38],-1.68
same,glycan array binding signal (z-score),[39],-1.76
same,glycan array binding signal (z-score),[40],-0.369
same,glycan array binding signal (z-score),[41],-1.65
same,glycan array binding signal (z-score),[42],0.622

# Reformatted: entries from further up.
binder	measurement	setting	value
KILRGVCKKIMRTFLRRISKDILTGKK [NK2 (Sus scrofa)]	glycan array binding signal (z-score)	[21]	0.446
same	glycan array binding signal (z-score)	[22]	-0.07
same	glycan array binding signal (z-score)	[23]	0.244
same	glycan array binding signal (z-score)	[24]	-1.23
